Data: PubChem BioAssay AID330 (DTP/NCI, 2004)
The list does not hold the whole screen: it is rich in T/C values a quarter to a half above the control, in often repeated tests (any T/C) and in doses without a T/C. Further doses and runs are listed elsewhere. T/C gives the treated animals as a percentage of the vehicle group. Some doses have a count of surviving animals in place of a T/C: the source holds a T/C of zero for them, seemingly a mark for toxic or unscored doses. Some doses without a T/C left all or most animals alive at the check, yet need not have been tolerated: the source hardly ever lists a survival T/C far under the control, and the zero likely stands for such cases as well. Counts of survivors are from the toxicity check (mostly the fifth day) where no day follows; animals may have died later. Schedules are NCI's codes, taken here to give the interval after Q, in days (D) or hours (H), and the number of doses after X. Some structures stand for samples that the source files as different forms (salt, stereo form or complex); doses refer to the form tested. Where survival is the endpoint, the PubChem record calls one and a half times the control and up active, and a quarter to a half above the control has no call in these data; cut-offs in other NCI protocols can differ. Some T/C values carry the count of animals alive at the toxicity check (mostly the fifth day); where none is given, no animal had died by that day. Some doses were run more than once; the results are listed from low to high.

Test system: P388 leukemia ip, CD2F1 mice, survival T/C
Experiment: NCI In Vivo Anticancer Drug Screen. Data for tumor model P388 Leukemia (intraperitoneal) in CD2F1 (CDF1) mice
Conditions: T/C endpoint: median survival time, higher T/C = longer survival
[1] = dose: 400.0 mg/kg/injection, schedule: Q01DX001 (ip), vehicle: saline with Tween-80
[2] = dose: 200.0 mg/kg/injection, schedule: Q01DX005 (ip), vehicle: saline with Tween-80
[3] = dose: 50.0 mg/kg/injection, schedule: Q04DX002 (ip), vehicle: saline with Tween-80
[4] = dose: 400.0 mg/kg/injection, schedule: Q04DX002 (ip), vehicle: Klucel (hydroxypropylcellulose) (HPC)
[5] = dose: 240.0 mg/kg/injection, schedule: Q01DX005 (ip), vehicle: saline with Tween-80
[6] = dose: 200.0 mg/kg/injection, schedule: Q01DX005 (ip), vehicle: Klucel (hydroxypropylcellulose) (HPC)
[7] = dose: 200.0 mg/kg/injection, schedule: Q01DX009 (ip), vehicle: saline
[8] = dose: 100.0 mg/kg/injection, schedule: Q01DX005 (ip), vehicle: saline with Tween-80
[9] = dose: 120.0 mg/kg/injection, schedule: Q01DX005 (ip), vehicle: saline with Tween-80
[10] = dose: 100.0 mg/kg/injection, schedule: Q01DX009 (ip), vehicle: saline

[N-]=[N+]=CC(=O)C1(c2ccccc2)OC1c1ccc([N+](=O)[O-])cc1 (configuration not stated)
survivor count (dose: 100.0 mg/kg/injection, schedule: Q01DX001 (ip), vehicle: saline with Tween-80): 6 of 6
survivor count (dose: 200.0 mg/kg/injection, schedule: Q01DX001 (ip), vehicle: saline with Tween-80): 6 of 6
survivor count [1]: 6 of 6

CCCCCCCCCCCCCCCCCCSc1c(OC)c(OC(C)=O)c(OC)c(OC)c1OC(C)=O
survivor count (dose: 2.0 mg/kg/injection, schedule: Q01DX009 (ip), vehicle: Klucel (hydroxypropylcellulose) (HPC)): 6 of 6

N=c1c2ccccc2nc2n1CCCCC2
survivor count (dose: 100.0 mg/kg/injection, schedule: Q04DX003 (ip), vehicle: saline): 5 of 6

C=C1C[C@@]2(OC)OCC[C@H]3C(C)=CCC(C1=O)[C@]32C(=O)OC (some centres not stated)
survivor count [2]: 2 of 6

CC1C(=O)OC2C1CCC1(C)C=CC(=O)C(C)C21 (configuration not stated)
survivor count [3]: 1 of 6

COC(=O)c1cc(=O)n(-c2ccccc2C)c(SC)n1
survivor count [4]: 0 of 6

CN=C(NC)c1ccc(NC(=O)/C=C\c2ccc(C(=O)Nc3ccc(C(=NC)NC)cc3)cc2)cc1
T/C (dose: 6.6 mg/kg/injection, schedule: Q04DX003 (ip), vehicle: saline with Tween-80): 145 % of control

C=CC(N)[Si](CC)(CC)CC (configuration not stated)
survivor count [5]: 0 of 6

CCN(CC)CCSc1ccccc1
survivor count [6]: 0 of 6

C1CCN(P(N2CCCCC2)N2CCCCC2)CC1
survivor count (dose: 200.0 mg/kg/injection, schedule: Q04DX003 (ip), vehicle: saline with Tween-80): 5 of 6
survivor count (dose: 400.0 mg/kg/injection, schedule: Q04DX003 (ip), vehicle: saline with Tween-80): 0 of 6

CCC(=O)Oc1ccc[nH]c1=O
T/C [7]: 103, 111, 115 [5 of 6 alive], 119 % of control
T/C (dose: 300.0 mg/kg/injection, schedule: Q01DX009 (ip), vehicle: Klucel (hydroxypropylcellulose) (HPC)): 125 and 128 % of control
T/C (dose: 400.0 mg/kg/injection, schedule: Q01DX009 (ip), vehicle: Klucel (hydroxypropylcellulose) (HPC)): 134 % of control
T/C (dose: 400.0 mg/kg/injection, schedule: Q01DX009 (ip), vehicle: saline with Tween-80): 133 % of control
T/C (dose: 400.0 mg/kg/injection, schedule: Q01DX009 (ip), vehicle: saline): 118, 119, 122 [5 of 6 alive], 143 % of control
T/C (dose: 500.0 mg/kg/injection, schedule: Q01DX009 (ip), vehicle: Klucel (hydroxypropylcellulose) (HPC)): 136 % of control
T/C (dose: 500.0 mg/kg/injection, schedule: Q01DX009 (ip), vehicle: saline): 134 and 136 % of control
T/C (dose: 600.0 mg/kg/injection, schedule: Q01DX009 (ip), vehicle: Klucel (hydroxypropylcellulose) (HPC)): 136 and 142 % of control
T/C (dose: 600.0 mg/kg/injection, schedule: Q01DX009 (ip), vehicle: saline with Tween-80): 136 % of control
T/C (dose: 600.0 mg/kg/injection, schedule: Q01DX009 (ip), vehicle: saline): 134 % of control

COc1cc(C2c3cc4c(cc3OC(C)(O)C2C)OCO4)cc(OC)c1OC (configuration not stated)
T/C [8]: 125 % of control [5 of 6 alive]
survivor count [2]: 3 of 6
T/C (dose: 200.0 mg/kg/injection, schedule: Q01DX005 (ip), vehicle: saline): 141 % of control

C#CO[C@@H]1C[C@H](C)CCC1C(C)C (some centres not stated)
survivor count [5]: 0 of 6

CSC(=Nc1nc2ccc([N+](=O)[O-])cc2s1)SC
survivor count (dose: 50.0 mg/kg/injection, schedule: Q01DX009 (ip), vehicle: Klucel (hydroxypropylcellulose) (HPC)): 6 of 6
survivor count (dose: 100.0 mg/kg/injection, schedule: Q01DX009 (ip), vehicle: Klucel (hydroxypropylcellulose) (HPC)): 2 of 6
survivor count (dose: 200.0 mg/kg/injection, schedule: Q01DX009 (ip), vehicle: Klucel (hydroxypropylcellulose) (HPC)): 0 of 6

O=C1C=CC(=CC=C2C=CN(CCCCCCCCCCCO)C=C2)C=C1
T/C (dose: 6.25 mg/kg/injection, schedule: Q01DX005 (ip), vehicle: saline with Tween-80): 134 % of control
survivor count (dose: 25.0 mg/kg/injection, schedule: Q01DX005 (ip), vehicle: saline with Tween-80): 6 of 6
survivor count (dose: 30.0 mg/kg/injection, schedule: Q01DX005 (ip), vehicle: saline with Tween-80): 6 of 6
survivor count (dose: 50.0 mg/kg/injection, schedule: Q01DX005 (ip), vehicle: saline with Tween-80): 4 of 6
survivor count (dose: 60.0 mg/kg/injection, schedule: Q01DX005 (ip), vehicle: saline with Tween-80): 5 of 6
survivor count [8]: 1 of 6
survivor count [9]: 4 of 6
survivor count [2]: 0 of 6
survivor count [5]: 0 of 6

COc1cc(N=Nc2ccc([N+](=O)[O-])cc2)ccc1N(CCCl)CCCl
T/C (dose: 25.0 mg/kg/injection, schedule: Q01DX009 (ip), vehicle: saline with Tween-80): 140 % of control
T/C (dose: 50.0 mg/kg/injection, schedule: Q01DX009 (ip), vehicle: saline with Tween-80): 145 % of control

CCOC(=O)CN(C)C(c1ccccc1)c1cccs1 (configuration not stated)
survivor count [4]: 1 of 5

CCCCCCCCCCCC(=O)NC(=S)Nc1ccccc1C(=O)OC
survivor count [10]: 3 of 6
survivor count [7]: 0 of 6

CC12CCC(O)CC1CCC1C2CCC2(C)C(c3ccc(=O)oc3)CCC12O (configuration not stated)
survivor count (dose: 5.0 mg/kg/injection, schedule: Q01DX009 (ip), vehicle: saline with Tween-80): 3 of 6

CC(C)(C)c1cc2c(c(C(C)(C)OC(=O)c3ccccc3)c1)SOC2(C)C
survivor count [6]: 6 of 6

CSC(=S)/C(=C(/[O-])c1ccccc1)[n+]1cccc(C)c1
survivor count [3]: 0 of 6
survivor count (dose: 100.0 mg/kg/injection, schedule: Q04DX002 (ip), vehicle: saline with Tween-80): 0 of 6
survivor count (dose: 200.0 mg/kg/injection, schedule: Q04DX002 (ip), vehicle: saline with Tween-80): 0 of 6

CSCCC([NH-])C(=O)O.CSCCC([NH-])C(=O)O.[Ni+2] (configuration not stated)
survivor count (dose: 6.25 mg/kg/injection, schedule: Q01DX009 (ip), vehicle: saline): 6 of 6
survivor count (dose: 25.0 mg/kg/injection, schedule: Q01DX009 (ip), vehicle: saline): 2 of 6
survivor count (dose: 50.0 mg/kg/injection, schedule: Q01DX009 (ip), vehicle: saline): 5 of 6
survivor count [10]: 0 of 6
survivor count [7]: 0 of 6

CC1NC(=O)C(NC(=O)c2cnc3ccccc3n2)COC(=O)C(C(C)C)N(C)C(=O)C2CSSCC(C(=O)N(C)C(C(C)C)C(=O)OCC(NC(=O)c3cnc4ccccc4n3)C(=O)NC(C)C(=O)N2C)N(C)C1=O (configuration not stated)
T/C (dose: 12.5 micrograms/kg/injection, schedule: Q01DX009 (ip), vehicle: water): 132 % of control
survivor count (dose: 200.0 micrograms/kg/injection, schedule: Q01DX009 (ip), vehicle: water): 5 of 6

COc1ccc(O)cc1
survivor count [1]: 2 of 6

CN(C)Cc1cn(C[Si](C)(C)C)c2ccccc12
survivor count [9]: 0 of 6
survivor count [5]: 0 of 6

C#CCCCOCOCCOC
survivor count (dose: 240.0 mg/kg/injection, schedule: Q01DX005 (ip), vehicle: saline): 3 of 6

COc1ccc2c(c1O)-c1cc(O)cc3c1[C@@H](C2)N(C)CC3
survivor count [2]: 0 of 6

COC(=O)C1C2CC3c4[nH]c5c([N+](=O)[O-])c(OC)ccc5c4CCN3CC2CC(OC(=O)c2cc(OC)c(OC)c(OC)c2)C1OC (configuration not stated)
survivor count (dose: 150.0 mg/kg/injection, schedule: Q01DX005 (ip), vehicle: Klucel (hydroxypropylcellulose) (HPC)): 6 of 6
